Test results published in article PMC7381519.
Residue numbers refer to the chain shown, from its start. No constants are given. Whether binding was seen depends on the method and setting. In cells and extracts the contact can be indirect. Some results given as binding are weak or reduced against the parent protein; the word gives no strength. One block for each binder: values may come before it.

Chains of the proteins cited; added tags and fusions are not shown. Residues count along the entry.
UniProt Q8C6L5: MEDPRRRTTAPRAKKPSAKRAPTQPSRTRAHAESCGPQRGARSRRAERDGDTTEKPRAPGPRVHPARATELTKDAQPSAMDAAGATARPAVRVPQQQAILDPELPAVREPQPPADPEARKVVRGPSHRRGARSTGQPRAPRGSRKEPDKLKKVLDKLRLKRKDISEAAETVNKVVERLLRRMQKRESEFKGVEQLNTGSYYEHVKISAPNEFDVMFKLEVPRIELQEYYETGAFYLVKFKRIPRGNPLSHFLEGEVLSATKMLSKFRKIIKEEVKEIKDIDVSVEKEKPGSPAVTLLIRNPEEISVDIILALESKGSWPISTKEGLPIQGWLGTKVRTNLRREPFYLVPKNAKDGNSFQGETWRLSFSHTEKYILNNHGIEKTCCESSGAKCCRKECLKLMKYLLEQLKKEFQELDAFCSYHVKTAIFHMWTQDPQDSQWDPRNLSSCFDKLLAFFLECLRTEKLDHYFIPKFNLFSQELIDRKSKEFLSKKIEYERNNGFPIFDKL
UniProt Q8N884, residues 161-522: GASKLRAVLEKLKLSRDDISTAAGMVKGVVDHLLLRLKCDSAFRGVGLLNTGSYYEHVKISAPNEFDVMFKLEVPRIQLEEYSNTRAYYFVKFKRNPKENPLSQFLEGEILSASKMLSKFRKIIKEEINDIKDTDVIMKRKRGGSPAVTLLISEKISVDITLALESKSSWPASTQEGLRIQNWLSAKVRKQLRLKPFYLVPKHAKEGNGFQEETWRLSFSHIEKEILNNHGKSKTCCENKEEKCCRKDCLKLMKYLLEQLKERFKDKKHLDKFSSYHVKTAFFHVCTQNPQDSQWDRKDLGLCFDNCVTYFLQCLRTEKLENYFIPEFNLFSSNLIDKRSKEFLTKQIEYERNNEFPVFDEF
UniProt O00743: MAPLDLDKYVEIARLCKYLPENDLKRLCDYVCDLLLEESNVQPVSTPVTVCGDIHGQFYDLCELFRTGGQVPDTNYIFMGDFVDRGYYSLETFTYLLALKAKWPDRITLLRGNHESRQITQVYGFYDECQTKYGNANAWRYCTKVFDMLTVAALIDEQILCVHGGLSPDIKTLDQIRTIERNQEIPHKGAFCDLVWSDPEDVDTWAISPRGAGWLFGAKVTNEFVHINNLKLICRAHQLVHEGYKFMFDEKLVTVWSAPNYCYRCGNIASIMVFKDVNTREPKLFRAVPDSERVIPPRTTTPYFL

Assays:
[1] = molecular target: cGAS, endogenous in murine lung fibroblasts (mouse (endogenous in MLFs)) (UniProt Q8C6L5); experiment: co-IP; endogenous proteins; cytoplasmic lysates of un-infected MLFs (1 x 10^7); immunoblot with the indicated antibodies
[2] = molecular target: C-terminal catalytic domain (aa 161-522) of cGAS (not stated (human or mouse cDNA cloned)) (UniProt Q8N884); experiment: co-IP; HEK293T cells transfected with the indicated plasmids for 16 h; domain mapping with cGAS truncations; immunoblot with the indicated antibodies

binding [1]: binds
B1: PPP6C, endogenous in murine lung fibroblasts (enzyme, UniProt Q9CQR6 1-305)
chain: MAPLDLDKYVEIARQCKYLPENDLKRLCDYVCDLLLEESNVQPVSTPVTVCGDIHGQFYDLCELFRTGGQVPDTNYIFMGDFVDRGYYSLETFTYLLALKAKWPDRITLLRGNHESRQITQVYGFYDECQTKYGNANAWRYCTKVFDMLTVAALIDEQILCVHGGLSPDIKTLDQIRTIERNQEIPHKGAFCDLVWSDPEDVDTWAISPRGAGWLFGAKVTNEFVHINNLKLICRAHQLVHEGYKFMFDEKLVTVWSAPNYCYRCGNIASIMVFKDVNTREPKLFRAVPDSERVIPPRTTTPYFL

binding [2]: binds
B2: PPP6C, expressed in HEK293T cells (enzyme, UniProt O00743 1-305)
chain: B1 chain with Q15L
